Assay results taken from the supplement of paper PMC10849652.
The list shows a part of the results.

Sequences of proteins named here, by UniProt entry; tags and fusion partners are left off. A change or cut given only in a name is not applied to a line headed by its entry.
UniProt Q53GA4: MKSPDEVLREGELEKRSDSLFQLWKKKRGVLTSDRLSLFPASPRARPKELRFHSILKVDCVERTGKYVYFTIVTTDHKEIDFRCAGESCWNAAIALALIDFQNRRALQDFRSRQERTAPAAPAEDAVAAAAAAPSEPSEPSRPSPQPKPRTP
UniProt Q8N2W9: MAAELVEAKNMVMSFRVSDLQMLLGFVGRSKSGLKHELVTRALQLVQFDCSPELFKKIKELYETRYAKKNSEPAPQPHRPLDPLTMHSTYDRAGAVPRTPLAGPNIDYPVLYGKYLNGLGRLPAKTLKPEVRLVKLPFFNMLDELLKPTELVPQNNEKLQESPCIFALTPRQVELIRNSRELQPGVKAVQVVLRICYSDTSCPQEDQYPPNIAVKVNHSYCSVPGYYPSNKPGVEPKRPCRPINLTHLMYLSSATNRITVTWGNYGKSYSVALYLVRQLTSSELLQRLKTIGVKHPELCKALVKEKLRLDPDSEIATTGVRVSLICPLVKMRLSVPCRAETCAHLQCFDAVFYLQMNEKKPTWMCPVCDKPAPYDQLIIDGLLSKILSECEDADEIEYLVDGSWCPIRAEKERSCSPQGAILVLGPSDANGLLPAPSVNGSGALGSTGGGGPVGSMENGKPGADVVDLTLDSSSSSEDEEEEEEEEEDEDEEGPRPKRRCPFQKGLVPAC
UniProt O75151: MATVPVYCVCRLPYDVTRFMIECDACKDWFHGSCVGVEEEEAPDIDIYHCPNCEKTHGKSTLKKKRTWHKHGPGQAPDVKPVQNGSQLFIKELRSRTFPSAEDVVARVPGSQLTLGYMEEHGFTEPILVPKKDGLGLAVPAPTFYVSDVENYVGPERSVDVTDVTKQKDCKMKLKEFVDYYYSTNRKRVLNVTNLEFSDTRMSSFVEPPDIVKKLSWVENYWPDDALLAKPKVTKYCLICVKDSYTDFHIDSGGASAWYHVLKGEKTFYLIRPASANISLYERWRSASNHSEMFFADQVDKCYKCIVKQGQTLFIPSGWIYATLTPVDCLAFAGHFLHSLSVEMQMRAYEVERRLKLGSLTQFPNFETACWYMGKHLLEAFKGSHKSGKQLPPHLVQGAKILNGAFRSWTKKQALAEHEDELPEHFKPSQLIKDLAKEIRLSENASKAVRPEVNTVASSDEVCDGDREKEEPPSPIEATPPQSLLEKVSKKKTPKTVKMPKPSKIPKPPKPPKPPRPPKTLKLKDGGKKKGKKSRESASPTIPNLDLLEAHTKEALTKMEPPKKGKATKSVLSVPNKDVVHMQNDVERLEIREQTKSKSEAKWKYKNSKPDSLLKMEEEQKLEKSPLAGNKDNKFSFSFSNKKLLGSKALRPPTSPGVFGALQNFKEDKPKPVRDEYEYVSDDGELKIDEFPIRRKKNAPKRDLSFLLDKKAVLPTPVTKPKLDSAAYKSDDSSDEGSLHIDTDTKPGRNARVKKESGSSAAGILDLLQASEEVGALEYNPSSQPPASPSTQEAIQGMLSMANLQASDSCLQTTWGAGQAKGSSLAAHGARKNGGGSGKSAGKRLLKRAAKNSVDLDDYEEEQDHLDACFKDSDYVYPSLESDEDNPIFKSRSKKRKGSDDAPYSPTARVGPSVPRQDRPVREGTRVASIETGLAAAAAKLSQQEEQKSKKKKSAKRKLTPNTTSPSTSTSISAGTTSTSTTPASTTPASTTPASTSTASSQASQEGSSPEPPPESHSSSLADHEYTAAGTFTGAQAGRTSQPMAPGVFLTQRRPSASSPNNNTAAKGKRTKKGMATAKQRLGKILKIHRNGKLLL
UniProt Q8N4B1: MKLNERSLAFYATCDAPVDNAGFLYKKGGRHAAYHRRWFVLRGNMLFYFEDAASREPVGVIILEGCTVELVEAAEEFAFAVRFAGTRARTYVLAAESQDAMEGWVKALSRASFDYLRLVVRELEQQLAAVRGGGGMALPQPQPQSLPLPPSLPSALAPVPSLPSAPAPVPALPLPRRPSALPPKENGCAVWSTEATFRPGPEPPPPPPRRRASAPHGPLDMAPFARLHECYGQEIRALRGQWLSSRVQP
UniProt Q7Z7B1: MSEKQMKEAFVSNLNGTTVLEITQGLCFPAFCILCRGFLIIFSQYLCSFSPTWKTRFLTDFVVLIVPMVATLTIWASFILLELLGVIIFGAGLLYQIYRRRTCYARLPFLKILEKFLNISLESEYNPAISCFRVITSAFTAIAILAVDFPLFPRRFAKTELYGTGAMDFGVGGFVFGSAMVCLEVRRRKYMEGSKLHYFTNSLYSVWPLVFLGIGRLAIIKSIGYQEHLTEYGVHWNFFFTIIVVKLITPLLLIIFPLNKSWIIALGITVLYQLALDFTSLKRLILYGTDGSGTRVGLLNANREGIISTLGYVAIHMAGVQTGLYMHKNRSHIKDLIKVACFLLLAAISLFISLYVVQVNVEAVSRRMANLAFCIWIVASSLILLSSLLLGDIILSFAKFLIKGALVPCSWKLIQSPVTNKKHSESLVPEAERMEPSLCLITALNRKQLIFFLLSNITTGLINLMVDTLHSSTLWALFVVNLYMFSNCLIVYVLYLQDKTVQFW
PIGBOS1, A0A0B4J2F0, UniProt A0A0B4J2F0, whole entry, looked up: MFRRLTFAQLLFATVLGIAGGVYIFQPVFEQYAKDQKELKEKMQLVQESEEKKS
UniProt P36871: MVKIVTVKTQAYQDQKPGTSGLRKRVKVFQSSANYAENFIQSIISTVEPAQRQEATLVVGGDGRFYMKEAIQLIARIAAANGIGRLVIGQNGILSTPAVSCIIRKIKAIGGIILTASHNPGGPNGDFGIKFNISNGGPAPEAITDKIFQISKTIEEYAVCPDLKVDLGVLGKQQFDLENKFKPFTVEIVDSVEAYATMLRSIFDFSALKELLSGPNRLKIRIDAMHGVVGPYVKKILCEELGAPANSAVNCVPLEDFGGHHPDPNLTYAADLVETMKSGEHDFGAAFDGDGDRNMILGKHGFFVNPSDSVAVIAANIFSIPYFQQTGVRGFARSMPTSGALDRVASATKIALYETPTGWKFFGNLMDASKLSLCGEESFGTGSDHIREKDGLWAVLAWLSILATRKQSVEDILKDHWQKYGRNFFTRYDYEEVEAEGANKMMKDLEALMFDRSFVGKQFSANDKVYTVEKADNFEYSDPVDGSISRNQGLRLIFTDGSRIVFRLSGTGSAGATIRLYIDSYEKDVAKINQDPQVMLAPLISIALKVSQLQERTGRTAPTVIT
UniProt Q9BVI0: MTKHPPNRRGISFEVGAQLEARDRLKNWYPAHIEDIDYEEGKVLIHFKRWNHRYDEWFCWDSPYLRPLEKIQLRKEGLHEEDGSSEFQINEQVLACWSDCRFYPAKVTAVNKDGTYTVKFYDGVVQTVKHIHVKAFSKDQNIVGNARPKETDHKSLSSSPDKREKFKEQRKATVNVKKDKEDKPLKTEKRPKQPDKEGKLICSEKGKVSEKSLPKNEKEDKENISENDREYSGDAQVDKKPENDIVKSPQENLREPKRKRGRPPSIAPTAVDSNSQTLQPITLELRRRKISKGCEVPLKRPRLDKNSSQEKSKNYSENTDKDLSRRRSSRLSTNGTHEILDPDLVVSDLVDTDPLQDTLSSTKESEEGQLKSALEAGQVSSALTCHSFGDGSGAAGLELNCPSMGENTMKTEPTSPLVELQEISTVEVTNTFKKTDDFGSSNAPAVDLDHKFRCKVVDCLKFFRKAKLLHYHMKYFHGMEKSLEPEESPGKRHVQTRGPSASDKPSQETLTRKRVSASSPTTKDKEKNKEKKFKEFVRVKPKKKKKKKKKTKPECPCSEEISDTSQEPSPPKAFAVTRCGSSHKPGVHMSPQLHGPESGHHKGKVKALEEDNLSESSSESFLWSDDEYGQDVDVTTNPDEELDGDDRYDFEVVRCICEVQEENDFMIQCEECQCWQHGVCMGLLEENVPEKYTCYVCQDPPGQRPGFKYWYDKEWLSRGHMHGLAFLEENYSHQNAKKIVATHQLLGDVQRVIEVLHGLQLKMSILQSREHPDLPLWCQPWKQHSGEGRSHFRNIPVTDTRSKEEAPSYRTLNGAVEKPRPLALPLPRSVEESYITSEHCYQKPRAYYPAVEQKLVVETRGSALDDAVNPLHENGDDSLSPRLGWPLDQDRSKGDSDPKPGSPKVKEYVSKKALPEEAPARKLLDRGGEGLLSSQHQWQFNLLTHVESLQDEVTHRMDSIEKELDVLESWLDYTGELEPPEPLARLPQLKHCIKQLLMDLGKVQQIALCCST
UniProt Q99640: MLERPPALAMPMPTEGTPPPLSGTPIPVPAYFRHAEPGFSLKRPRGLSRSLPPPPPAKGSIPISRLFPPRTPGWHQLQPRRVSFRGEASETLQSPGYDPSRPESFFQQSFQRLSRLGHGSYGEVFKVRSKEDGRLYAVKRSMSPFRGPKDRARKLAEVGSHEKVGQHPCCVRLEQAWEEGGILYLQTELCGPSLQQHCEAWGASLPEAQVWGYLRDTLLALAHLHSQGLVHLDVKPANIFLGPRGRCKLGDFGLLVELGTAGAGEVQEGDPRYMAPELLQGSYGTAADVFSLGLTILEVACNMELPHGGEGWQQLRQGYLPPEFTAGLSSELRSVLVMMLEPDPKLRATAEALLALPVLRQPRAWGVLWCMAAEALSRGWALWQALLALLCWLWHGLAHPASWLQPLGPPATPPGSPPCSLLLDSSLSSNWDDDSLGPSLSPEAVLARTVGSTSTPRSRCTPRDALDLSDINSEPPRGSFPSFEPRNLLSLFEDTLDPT
UniProt Q9H7P9: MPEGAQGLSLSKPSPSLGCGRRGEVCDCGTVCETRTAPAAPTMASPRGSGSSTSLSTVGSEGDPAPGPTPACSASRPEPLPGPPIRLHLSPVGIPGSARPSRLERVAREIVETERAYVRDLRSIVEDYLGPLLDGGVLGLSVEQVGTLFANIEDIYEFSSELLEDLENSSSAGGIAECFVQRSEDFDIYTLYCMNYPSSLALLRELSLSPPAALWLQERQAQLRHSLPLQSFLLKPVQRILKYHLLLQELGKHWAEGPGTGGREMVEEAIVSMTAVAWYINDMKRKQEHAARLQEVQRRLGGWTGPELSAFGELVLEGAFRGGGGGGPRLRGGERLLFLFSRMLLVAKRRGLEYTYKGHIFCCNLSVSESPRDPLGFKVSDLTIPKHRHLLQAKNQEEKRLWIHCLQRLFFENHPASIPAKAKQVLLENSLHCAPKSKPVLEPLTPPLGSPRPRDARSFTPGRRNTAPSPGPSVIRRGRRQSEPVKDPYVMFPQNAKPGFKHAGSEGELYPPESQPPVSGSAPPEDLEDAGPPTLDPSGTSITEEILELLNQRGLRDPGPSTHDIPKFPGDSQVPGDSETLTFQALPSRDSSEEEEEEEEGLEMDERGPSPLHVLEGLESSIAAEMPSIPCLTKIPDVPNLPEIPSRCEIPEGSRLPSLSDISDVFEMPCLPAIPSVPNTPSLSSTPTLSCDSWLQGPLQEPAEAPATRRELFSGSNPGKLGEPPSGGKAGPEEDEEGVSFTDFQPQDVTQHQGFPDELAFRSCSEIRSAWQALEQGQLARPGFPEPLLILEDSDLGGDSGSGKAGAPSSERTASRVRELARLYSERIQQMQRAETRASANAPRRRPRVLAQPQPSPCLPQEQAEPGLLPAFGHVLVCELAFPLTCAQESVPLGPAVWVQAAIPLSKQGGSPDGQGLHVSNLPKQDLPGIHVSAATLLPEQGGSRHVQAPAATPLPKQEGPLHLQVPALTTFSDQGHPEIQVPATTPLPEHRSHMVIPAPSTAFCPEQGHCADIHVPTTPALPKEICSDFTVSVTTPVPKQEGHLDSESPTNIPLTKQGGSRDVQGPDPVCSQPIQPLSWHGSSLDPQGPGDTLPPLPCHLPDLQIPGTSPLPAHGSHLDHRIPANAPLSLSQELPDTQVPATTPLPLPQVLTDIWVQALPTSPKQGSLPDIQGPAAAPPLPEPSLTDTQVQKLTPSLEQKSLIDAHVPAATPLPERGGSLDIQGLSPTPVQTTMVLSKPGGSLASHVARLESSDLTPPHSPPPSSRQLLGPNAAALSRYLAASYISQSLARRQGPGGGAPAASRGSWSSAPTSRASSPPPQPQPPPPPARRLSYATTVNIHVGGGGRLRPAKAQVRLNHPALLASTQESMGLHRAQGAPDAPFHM
UniProt P08567: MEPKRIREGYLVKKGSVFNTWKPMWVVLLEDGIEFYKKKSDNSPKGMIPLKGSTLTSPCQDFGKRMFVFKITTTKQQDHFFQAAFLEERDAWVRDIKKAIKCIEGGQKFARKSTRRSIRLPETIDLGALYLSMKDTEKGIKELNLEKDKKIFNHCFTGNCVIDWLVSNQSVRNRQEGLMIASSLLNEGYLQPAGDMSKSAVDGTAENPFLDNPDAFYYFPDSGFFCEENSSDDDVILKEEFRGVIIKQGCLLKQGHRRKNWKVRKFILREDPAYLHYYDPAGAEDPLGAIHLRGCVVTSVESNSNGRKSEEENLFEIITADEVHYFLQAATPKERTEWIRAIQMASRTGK

Tests used:
Assay in all cases: log2 fold change, soluble protein after heating vs DMSO (PISA); higher = thermal stabilisation; K562 lysate, 10 uM; active = over 0.2 and 3.5 SD of the protein, either way, in both replicates (recomputed)
ralimetinib = compound: CC(C)(C)Cn1c(N)nc2ccc(-c3[nH]c(C(C)(C)C)nc3-c3ccc(F)cc3)nc21 [ralimetinib]
Method in brief: (§1)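 A 30 min treatment with 10 μM compound was applied to crude K562 extract at 1 mg/mL protein in PBS pH 7.4 with 1 mM MgCl2. Heating for 3 min spanned 48°C-58°C, after which aliquots were pooled, adjusted to 0.5% NP-40 at 4°C and spun at 21,000xg for 90 min. TMTpro 16plex LC-MS/MS of the supernatant, with channel sums equalised, gave values recorded as log-two fold change in thermal stability against solvent controls, from duplicates.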

[1] = compound: CC(C)(O)CC(=O)NCCn1ccc2ncnc(Nc3ccc(Oc4cccc(C(F)(F)F)c4)c(Cl)c3)c21
Method in brief: as §1

[2] = compound: CC(C)C1=C2N=C(C=C(N2N=C1)NCC3=CC=CC=C3)NCCCCCCN
Method in brief: as §1

[3] = compound: CC1=C(C2=C(C=C1)C(=O)C3=CC=CC=C3N2CCCN)C
Method in brief: as §1

[4] = compound: CC1=C(C=C(C=C1)NC(=O)C2=CC(=CC=C2)C(C)(C)C#N)NC3=CC4=C(C=C3)N=CN(C4=O)C
Method in brief: as §1

[5] = compound: CC1=C(C=C(C=C1)NC(=O)C2=CC(=CC=C2)N(C)C)NC(=O)C3=CC=C(C=C3)O
Method in brief: as §1

vemurafenib = compound: CCCS(=O)(=O)Nc1ccc(F)c(C(=O)c2c[nH]c3ncc(-c4ccc(Cl)cc4)cc23)c1F [vemurafenib]
Method in brief: as §1

[6] = compound: CCn1c(C(=O)N(C2CC2)C2CC2)cc2c3c(ncn3C)c(Nc3cc(C)n(C)n3)nc21
Method in brief: as §1

saracatinib = compound: CN1CCN(CCOc2cc(OC3CCOCC3)c3c(Nc4c(Cl)ccc5c4OCO5)ncnc3c2)CC1 [saracatinib]
Method in brief: as §1

sotrastaurin = compound: CN1CCN(c2nc(C3=C(c4c[nH]c5ccccc45)C(=O)NC3=O)c3ccccc3n2)CC1 [sotrastaurin]
Method in brief: as §1

[7] = compound: CC(=O)c1cnc2ccc(-c3cc(Cl)c(O)c(Cl)c3)nc2c1N[C@H]1CC[C@H](CN(C)C)CC1
Method in brief: as §1

[8] = compound: CC1=C(C(CC(=O)N1)C2=CC=C(C=C2)C(F)(F)F)C(=O)NC3=C(C=C4C(=C3)C=NN4)F
Method in brief: as §1

[9] = compound: CC1=CC=C(C=C1)SC2=C3C=C(SC3=CN=C2)C(=O)N
Method in brief: as §1

[10] = compound: CCCS(=O)(=O)Nc1ccc(F)c(C(=O)c2c[nH]c3ncc(Cl)cc23)c1F
Method in brief: as §1

[11] = compound: CC[C@@H]1C(=O)N(C)c2cnc(Nc3ccc(C(=O)NC4CCN(C)CC4)cc3OC)nc2N1C1CCCC1
Method in brief: as §1

volasertib = compound: CC[C@@H]1C(=O)N(C)c2cnc(Nc3ccc(C(=O)N[C@H]4CC[C@H](N5CCN(CC6CC6)CC5)CC4)cc3OC)nc2N1C(C)C [volasertib]
Method in brief: as §1

[12] = compound: CCn1cc(-c2ccnc3[nH]c(-c4cccc(CN(C)C)c4)cc23)c(-c2ccc(NC(=O)N(C)C)cc2)n1
Method in brief: as §1

[13] = compound: CN1CCC(CNc2ccc3ncc(-c4cccc(OC(F)(F)F)c4)n3n2)CC1
Method in brief: as §1

Measured: log2 fold change

PHLDA2 (UniProt Q53GA4)
inactive: ralimetinib 0.03 | [1] -0.133 | [2] -0.06 | [3] -0.042 | [4] -0.054 | [5] 0.104 | vemurafenib -0.252 | [6] 0.047 | saracatinib 0.078 | sotrastaurin 0.019

PHC3 isoform 7 (UniProt Q8NDX5)
inactive: [7] 0.033 | [2] 0.165 | [8] 0.026 | [3] -0.047 | [4] 0 | [9] 0.034 | vemurafenib 0.03 | [10] 0.027 | [11] 0.125 | volasertib -0.053 | [12] -0.167 | [13] 0.007 | saracatinib -0.1 | sotrastaurin 0.357

PLD6 (UniProt Q8N2A8)
inactive: [3] 0.015 | saracatinib 0.045

PIAS4 (UniProt Q8N2W9)
inactive: ralimetinib -0.034 | [1] -0.027 | [2] -0.172 | [8] 0.005 | [3] -0.218 | [4] 0.046 | [5] -0.022 | vemurafenib 0.077 | [11] -0.017 | [6] 0.051 | [12] -0.241 | [13] 0.029 | saracatinib 0.048 | sotrastaurin 0.007

PHF2 (UniProt O75151)
inactive: ralimetinib -0.205 | [1] -0.228 | [5] 0.135 | [6] 0.147

PIM2 (UniProt Q9P1W9)
inactive: ralimetinib 0.05 | [1] 0.075 | [8] -0.127 | [3] 0.184 | [5] 0.11 | [6] 0.078 | [12] 0.154 | [13] 0.296 | saracatinib -0.086

PHOSPHO2 (UniProt C9JD35)
inactive: [4] 0.09 | [11] -0.432 | sotrastaurin -0.027

PHETA1 isoform 4 (UniProt Q8N4B1)
inactive: ralimetinib 0.021 | [1] -0.074 | [5] -0.054 | [6] -0.055 | [12] 0.22 | [13] -0.013

PIGW (UniProt Q7Z7B1)
inactive: ralimetinib -0.138 | [1] -0.171 | [8] 0.013 | [3] 0.047 | [4] -0.01 | [5] -0.058 | vemurafenib 0.139 | [6] 0.06 | saracatinib 0.019 | sotrastaurin 0.007

PIGBOS1, A0A0B4J2F0
inactive: [4] -0.033 | [12] 0.125 | [13] -0.2 | sotrastaurin -0.114

PGM1 isoform 2 (UniProt P36871)
inactive: [2] 0.243 | [3] -0.073 | [11] -0.206 | saracatinib 0.082

PIDD1 (UniProt Q9HB75)
inactive: ralimetinib 0.024 | [1] 0.003 | [3] 0.136 | [5] -0.049 | [6] 0.063 | saracatinib 0.085

PHF19 (UniProt Q5T6S3)
inactive: ralimetinib -0.002 | [1] -0.05 | [2] -0.129 | [8] 0.058 | [4] -0.066 | [5] 0.099 | [6] 0.057 | sotrastaurin 0.054

PHC2 isoform 5 (UniProt Q8IXK0)
inactive: [8] 0.063 | [4] -0.016 | vemurafenib -0.239 | [11] -0.07 | [12] -0.1 | [13] 0.012 | sotrastaurin -0.019

PHF20 (UniProt Q9BVI0)
inactive: ralimetinib -0.092 | [1] -0.036 | [4] -0.086 | [5] -0.046 | [6] 0.075 | sotrastaurin 0.015

PHF12 (UniProt Q96QT6)
inactive: ralimetinib 0 | [1] -0.044 | [5] 0.025 | [6] -0.048

PHF8 (UniProt Q9UPP1)
inactive: ralimetinib -0.097 | [1] 0.036 | [2] 0.076 | [8] -0.052 | [4] 0.07 | [5] -0.191 | vemurafenib 0.125 | [11] 0.191 | [6] -0.11 | [12] 0.245 | [13] 0.064 | sotrastaurin 0.117

PIK3R3 (UniProt Q92569)
inactive: ralimetinib 0.122 | [1] 0.188 | [8] 0.048 | [5] 0.113 | [6] 0.111

PKMYT1 (UniProt Q99640)
inactive: ralimetinib 0.003 | [1] -0.118 | [8] 0.022 | [3] -0.06 | [4] 0.2 | [5] 0.035 | vemurafenib 0.004 | [11] 0.076 | [6] -0.048 | [12] -0.12 | [13] -0.031 | sotrastaurin 0.115

PLEKHA3 (UniProt Q9HB20)
inactive: ralimetinib 0.045 | [1] -0.049 | [8] 0.004 | [3] 0.08 | [4] 0.025 | [5] -0.032 | [6] 0.066 | [12] -0.06 | [13] -0.019 | saracatinib -0.01 | sotrastaurin 0.015

PIGT, A0A1W2PP13
inactive: [7] -0.028 | [8] -0.003 | [9] -0.056 | [10] -0.202 | volasertib 0.245

PIEZO2 isoform 4 (UniProt Q9H5I5)
inactive: [7] 0.086 | [2] -0.027 | [8] -0.077 | [4] 0.051 | [9] -0.058 | [10] 0.08 | [11] 0.08 | volasertib 0.039 | sotrastaurin 0.003

PLEKHG2 (UniProt Q9H7P9)
inactive: [2] 0.028 | [3] -0.295 | [11] 0.245 | [12] 0.059 | [13] -0.067 | saracatinib -0.152

PKLR (UniProt F8W6W2)
inactive: vemurafenib 0.035

PHLDB3 (UniProt Q6NSJ2)
inactive: [2] 0.034 | [4] 0.215 | sotrastaurin -0.215

PLEKHA8 (UniProt Q96JA3)
inactive: ralimetinib 0.272 | [1] 0.177 | [8] 0.02 | [3] -0.082 | [5] -0.234 | [11] 0 | [6] -0.124 | saracatinib 0.002

PLEK (UniProt P08567)
inactive: ralimetinib 0.112 | [1] -0.392 | [2] -0.037 | [4] 0 | [5] 0.103 | [11] -0.131 | [6] -0.11 | sotrastaurin 0.223

Reprinted at random: 2 entries already listed, in no set order.
PLEKHA8 (UniProt Q96JA3)
inactive: ralimetinib 0.272 | [1] 0.177 | [8] 0.02 | [3] -0.082 | [5] -0.234 | [11] 0 | [6] -0.124 | saracatinib 0.002

PHLDB3 (UniProt Q6NSJ2)
inactive: [2] 0.034 | [4] 0.215 | sotrastaurin -0.215
